Experimental data from EPA's CvTdb concentration-time database.
Further values from the same series stand in other lists.

What was measured:
Experiment in all cases: concentration in plasma after dosing
[1] = tested on: Mouse; details: 0.5 h; dosed: 2-Hydroxy-4-methoxybenzophenone; 500 mg/kg; oral; Male; B6C3F1
[2] = tested on: Rat; details: dosed: 2-Hydroxy-4-methoxybenzophenone, 100 mg/kg, oral, Female, F344
[3] = tested on: Mouse; details: 4 h; dosed: 2-Hydroxy-4-methoxybenzophenone; 500 mg/kg; oral; Female; B6C3F1
[4] = tested on: Rat; details: dosed: 2-Hydroxy-4-methoxybenzophenone, 100 mg/kg, oral, Female, F344; remark: listed apart in the source
[5] = tested on: Mouse; details: 8 h; dosed: 2-Hydroxy-4-methoxybenzophenone; 500 mg/kg; oral; Male; B6C3F1
[6] = tested on: Mouse; details: 1.5 h; dosed: 2-Hydroxy-4-methoxybenzophenone; 50 mg/kg; iv; Female; B6C3F1
[7] = tested on: Mouse; details: 2.5 min; dosed: 2-Hydroxy-4-methoxybenzophenone; 500 mg/kg; oral; Male; B6C3F1
[8] = tested on: Mouse; details: 1.5 h; dosed: 2-Hydroxy-4-methoxybenzophenone; 50 mg/kg; iv; Female; B6C3F1; remark: listed apart in the source
[9] = tested on: Mouse; details: 2.5 min; dosed: 2-Hydroxy-4-methoxybenzophenone; 500 mg/kg; oral; Female; B6C3F1
[10] = tested on: Mouse; details: 16 h; dosed: 2-Hydroxy-4-methoxybenzophenone; 500 mg/kg; oral; Female; B6C3F1
[11] = tested on: Rat; details: 16 h; dosed: 2-Hydroxy-4-methoxybenzophenone; 500 mg/kg; oral; Female; F344
[12] = tested on: Mouse; details: 5 min; dosed: 2-Hydroxy-4-methoxybenzophenone; 250 mg/kg; oral; Female; B6C3F1
[13] = tested on: Mouse; details: 1 h; dosed: 2-Hydroxy-4-methoxybenzophenone; 50 mg/kg; iv; Male; B6C3F1
[14] = tested on: Rat; details: 3 h; dosed: Perfluorohexanoic Acid; 80 mg/kg; oral; Female; Harlan Sprague Dawley
[15] = tested on: Rat; details: dosed: Perfluorohexanoic Acid, 40 mg/kg, Female, Harlan Sprague Dawley
[16] = tested on: Rat; details: 1 h; dosed: Perfluorohexanoic Acid; 80 mg/kg; oral; Female; Harlan Sprague Dawley
[17] = tested on: Rat; details: dosed: Perfluorohexanoic Acid, 160 mg/kg, oral, Female, Harlan Sprague Dawley
[18] = tested on: Rat; details: 12 h; dosed: Perfluorohexanoic Acid; 80 mg/kg; oral; Male; Harlan Sprague Dawley
[19] = tested on: Rat; details: 12 h; dosed: Perfluorohexanoic Acid; 80 mg/kg; oral; Female; Harlan Sprague Dawley
[20] = tested on: Rat; details: dosed: Perfluorohexanoic Acid, 160 mg/kg, oral, Female, Harlan Sprague Dawley; remark: listed apart in the source
[21] = tested on: Rat; details: dosed: Perfluorohexanoic Acid, 160 mg/kg, oral, Male, Harlan Sprague Dawley
[22] = tested on: Mouse; details: 1 h; dosed: 2-Hydroxy-4-methoxybenzophenone; 500 mg/kg; oral; Female; B6C3F1
[23] = tested on: Mouse; details: 1 h; dosed: 2-Hydroxy-4-methoxybenzophenone; 250 mg/kg; oral; Male; B6C3F1
[24] = tested on: Mouse; details: 4 h; dosed: 2-Hydroxy-4-methoxybenzophenone; 500 mg/kg; oral; Female; B6C3F1; remark: listed apart in the source
[25] = tested on: Mouse; details: 4 h; dosed: 2-Hydroxy-4-methoxybenzophenone; 250 mg/kg; oral; Female; B6C3F1
[26] = tested on: Mouse; details: 6 h; dosed: 2-Hydroxy-4-methoxybenzophenone; 250 mg/kg; oral; Female; B6C3F1
[27] = tested on: Mouse; details: 1 h; dosed: 2-Hydroxy-4-methoxybenzophenone; 50 mg/kg; iv; Female; B6C3F1
[28] = tested on: Mouse; details: 1 h; dosed: 2-Hydroxy-4-methoxybenzophenone; 50 mg/kg; iv; Male; B6C3F1; remark: listed apart in the source
[29] = tested on: Mouse; details: dosed: 2-Hydroxy-4-methoxybenzophenone, 100 mg/kg, oral, Female, B6C3F1
[30] = tested on: Mouse; details: 4 h; dosed: 2-Hydroxy-4-methoxybenzophenone; 250 mg/kg; oral; Male; B6C3F1
[31] = tested on: Rat; details: dosed: 2-Hydroxy-4-methoxybenzophenone, 100 mg/kg, oral, Male, F344
[32] = tested on: Rat; details: dosed: 2-Hydroxy-4-methoxybenzophenone, 250 mg/kg, oral, Female, F344
[33] = tested on: Mouse; details: 5 min; dosed: 2-Hydroxy-4-methoxybenzophenone; 50 mg/kg; iv; Female; B6C3F1
[34] = tested on: Mouse; details: 5 min; dosed: 2-Hydroxy-4-methoxybenzophenone; 50 mg/kg; iv; Male; B6C3F1
[35] = tested on: Mouse; details: 5 min; dosed: 2-Hydroxy-4-methoxybenzophenone; 500 mg/kg; oral; Female; B6C3F1
[36] = tested on: Rat; details: dosed: 2-Hydroxy-4-methoxybenzophenone, 100 mg/kg, oral, Male, F344; remark: listed apart in the source

`COc1ccc(C(=O)c2ccccc2)c(O)c1` [2-Hydroxy-4-methoxybenzophenone] was tested, and the concentration in plasma [1] was 479 ng/mL, the concentration in plasma ([2]; 5 min) was 7.37 ng/mL and the concentration in plasma ([2]; 2 h) was 14.3 ng/mL. It also gave a concentration in plasma [3] of 193 ng/mL, a concentration in plasma ([4]; 1.5 h) of 33.9 ng/mL and a concentration in plasma ([4]; 8 h) of 6.7 ng/mL. It also gave a concentration in plasma [5] of 32 ng/mL, a concentration in plasma [6] of 463 ng/mL and a concentration in plasma [7] of 22 ng/mL. It also gave a concentration in plasma [8] of 381 ng/mL, a concentration in plasma [9] of 70.1 ng/mL and a concentration in plasma [10] of 53.2 ng/mL. The concentration in plasma [11] was 36.3 ng/mL, the concentration in plasma [12] was 66.5 ng/mL and the concentration in plasma [13] was 935 ng/mL.

`O=C(O)C(F)(F)C(F)(F)C(F)(F)C(F)(F)C(F)(F)F` [Perfluorohexanoic Acid] gave a concentration in plasma [14] of 23400 ng/mL, a concentration in plasma ([15]; 0.25 h) of 139000 ng/mL and a concentration in plasma ([15]; 6 h) of 201 ng/mL. It also gave a concentration in plasma [16] of 71400 ng/mL, a concentration in plasma ([17]; 1 h) of 155000 ng/mL and a concentration in plasma ([17]; 24 h) of 41.9 ng/mL. It also gave a concentration in plasma [18] of 3070 ng/mL, a concentration in plasma [19] of 164 ng/mL and a concentration in plasma ([20]; 5 min) of 81000 ng/mL. It also gave a concentration in plasma ([20]; 3 h) of 52800 ng/mL, a concentration in plasma ([21]; 0.5 h) of 328000 ng/mL and a concentration in plasma ([21]; 9 h) of 14000 ng/mL.

`O=C(c1ccccc1)c1ccc(O)cc1O` [2,4-Dihydroxybenzophenone] gave a concentration in plasma [22] of 267 ng/mL, a concentration in plasma [23] of 596 ng/mL and a concentration in plasma [24] of 592 ng/mL. For the same compound, the concentration in plasma [25] was 53.6 ng/mL, the concentration in plasma [26] was 83.9 ng/mL and the concentration in plasma [27] was 103 ng/mL. It also gave a concentration in plasma [28] of 284 ng/mL, a concentration in plasma ([29]; 5 min) of 203 ng/mL and a concentration in plasma ([29]; 0.5 h) of 151 ng/mL. It also gave a concentration in plasma ([29]; 0.75 h) of 97.5 ng/mL, a concentration in plasma ([29]; 1 h) of 92.9 ng/mL and a concentration in plasma ([29]; 1.5 h) of 52.2 ng/mL. It also gave a concentration in plasma ([29]; 5 h) of 42.7 ng/mL, a concentration in plasma [30] of 293 ng/mL and a concentration in plasma ([31]; 1.5 h) of 86.1 ng/mL. For the same compound, the concentration in plasma ([31]; 8 h) was 36.4 ng/mL, the concentration in plasma ([32]; 1 h) was 565 ng/mL and the concentration in plasma ([32]; 6 h) was 147 ng/mL. The concentration in plasma [33] was 2490 ng/mL, the concentration in plasma [34] was 5340 ng/mL and the concentration in plasma [35] was 2040 ng/mL. The concentration in plasma ([36]; 1.5 h) was 135 ng/mL and the concentration in plasma ([36]; 8 h) was 46.3 ng/mL.
